Taken from: PubChem BioAssay AID1259254 (NCATS, 2017)
Purpose: 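Finding genes that stop cells copying their DNA twice in one cycle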 (primary screen). System: human HCT116 colorectal cancer cells. Reagent: single siRNA against human genes. Timing: 3 days. Measured: 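Nuclei stained with Hoechst and imaged; cell-cycle phase assigned by DNA content; G2 share scaled per plate, non-targeting siRNA 0%, GMNN siRNA 100%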. Reading the numbers: G2 robust z-score and G2 cells, % of GMNN control: higher = more G2 cells, more excess DNA replication. Rule for the call: 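Active siRNAs have a G2 robust z of 5 or more median absolute deviations over the median, which in these data means about 38% or higher of GMNN control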.
Here is an unselected part of about 59,000 reagents. Of all reagents, about 1,550 (2.6%) were called active. 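G2 share is only a proxy for re-replication; each gene was hit by three separate siRNAs, and active genes were retested.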 A number with no mark means an inactive call. The numbers tell different reagents against one gene apart. Further read-outs or replicates are left out here. Not stated in the record: the amount of reagent.

SKOR1 (SKI family transcriptional corepressor 1) #1 scored G2 robust z-score 0.431; G2 cells, % of GMNN control 6.
SKOR1 (SKI family transcriptional corepressor 1) #2 scored G2 robust z-score 3.51; G2 cells, % of GMNN control 27.7.
Silencing of SKOR1 (SKI family transcriptional corepressor 1) #3 resulted in: G2 robust z-score 2.02; G2 cells, % of GMNN control 17.2.
Silencing of HOXB4 (homeobox B4) #1 gave: G2 robust z-score -0.699; G2 cells, % of GMNN control -1.95.
After knock-down of HOXB4 (homeobox B4) #2, the record shows G2 robust z-score -0.63; G2 cells, % of GMNN control -1.46.
For HOXB4 (homeobox B4) #3, the entry reads G2 robust z-score 0.463; G2 cells, % of GMNN control 6.22.
Knock-down of RANBP1 (RAN binding protein 1) #1 resulted in: G2 robust z-score -0.205; G2 cells, % of GMNN control 1.53.
For RANBP1 (RAN binding protein 1) #2, the values are G2 robust z-score -0.604; G2 cells, % of GMNN control -1.28.
With knock-down of RANBP1 (RAN binding protein 1) #3, the screen gave G2 robust z-score -0.0857; G2 cells, % of GMNN control 2.36.
Silencing of HMG20B (high mobility group 20B) #1 came out at: G2 robust z-score 1.94; G2 cells, % of GMNN control 16.6.
HMG20B (high mobility group 20B) #2 scored G2 robust z-score 0.0496; G2 cells, % of GMNN control 3.32.
With knock-down of HMG20B (high mobility group 20B) #3 the results were G2 robust z-score -0.41; G2 cells, % of GMNN control 0.0845.
With knock-down of GCNA (germ cell nuclear acidic peptidase) #1, the record shows G2 robust z-score -0.591; G2 cells, % of GMNN control -1.19.
With knock-down of GCNA (germ cell nuclear acidic peptidase) #2, the screen gave G2 robust z-score 2.21; G2 cells, % of GMNN control 18.5.
GCNA (germ cell nuclear acidic peptidase) #3 gave G2 robust z-score -0.79; G2 cells, % of GMNN control -2.59.
With knock-down of IFT70B (intraflagellar transport 70B) #1 the results were G2 robust z-score 1.31; G2 cells, % of GMNN control 12.2.
IFT70B (intraflagellar transport 70B) #2 showed G2 robust z-score 0.185; G2 cells, % of GMNN control 4.27.
IFT70B (intraflagellar transport 70B) #3 gave G2 robust z-score -0.468; G2 cells, % of GMNN control -0.326.
Silencing of BYSL (bystin like) #1 resulted in: G2 robust z-score 2.05; G2 cells, % of GMNN control 17.4.
With knock-down of BYSL (bystin like) #2 the results were G2 robust z-score 0.119; G2 cells, % of GMNN control 3.81.
After knock-down of BYSL (bystin like) #3, the screen gave G2 robust z-score 0.467; G2 cells, % of GMNN control 6.26.
ARGFX (arginine-fifty homeobox) #1 showed G2 robust z-score 0.323; G2 cells, % of GMNN control 5.24.
Depletion of ARGFX (arginine-fifty homeobox) #2 gave: G2 robust z-score 1.3; G2 cells, % of GMNN control 12.1.
Depletion of ARGFX (arginine-fifty homeobox) #3 gave: G2 robust z-score 0.101; G2 cells, % of GMNN control 3.68.
